Laboratory results from the supplement of paper PMC11732987, “Enantioselective OTUD7B fragment discovery through chemoproteomics screening and high-throughput optimisation” (Communications Chemistry, 2025).
The list shows a part of the results. The data scatter; read single values as rough.

Protein sequences, listed by entry. Tags and fused reporters are not part of them. Lines headed by an entry give the natural chain unless they say otherwise; changes in a name come on top. Residues count along the entry.
UniProt Q12996: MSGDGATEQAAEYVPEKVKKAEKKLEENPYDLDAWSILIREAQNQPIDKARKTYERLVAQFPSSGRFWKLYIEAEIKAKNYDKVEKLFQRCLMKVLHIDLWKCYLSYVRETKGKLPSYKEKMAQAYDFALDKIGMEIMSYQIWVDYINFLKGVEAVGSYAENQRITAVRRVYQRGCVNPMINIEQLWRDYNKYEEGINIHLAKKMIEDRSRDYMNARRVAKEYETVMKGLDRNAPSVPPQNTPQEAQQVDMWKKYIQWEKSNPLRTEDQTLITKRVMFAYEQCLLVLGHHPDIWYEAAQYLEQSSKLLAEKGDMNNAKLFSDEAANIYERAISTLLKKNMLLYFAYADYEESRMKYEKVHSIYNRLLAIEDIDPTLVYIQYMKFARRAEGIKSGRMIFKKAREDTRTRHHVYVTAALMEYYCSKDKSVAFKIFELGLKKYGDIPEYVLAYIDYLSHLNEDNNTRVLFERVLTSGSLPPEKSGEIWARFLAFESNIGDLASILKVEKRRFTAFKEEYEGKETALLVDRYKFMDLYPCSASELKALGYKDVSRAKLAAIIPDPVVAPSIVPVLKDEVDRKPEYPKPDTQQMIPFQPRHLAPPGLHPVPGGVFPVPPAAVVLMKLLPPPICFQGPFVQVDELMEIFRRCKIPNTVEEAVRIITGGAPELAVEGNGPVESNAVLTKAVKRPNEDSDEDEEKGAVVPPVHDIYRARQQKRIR
UniProt O75534: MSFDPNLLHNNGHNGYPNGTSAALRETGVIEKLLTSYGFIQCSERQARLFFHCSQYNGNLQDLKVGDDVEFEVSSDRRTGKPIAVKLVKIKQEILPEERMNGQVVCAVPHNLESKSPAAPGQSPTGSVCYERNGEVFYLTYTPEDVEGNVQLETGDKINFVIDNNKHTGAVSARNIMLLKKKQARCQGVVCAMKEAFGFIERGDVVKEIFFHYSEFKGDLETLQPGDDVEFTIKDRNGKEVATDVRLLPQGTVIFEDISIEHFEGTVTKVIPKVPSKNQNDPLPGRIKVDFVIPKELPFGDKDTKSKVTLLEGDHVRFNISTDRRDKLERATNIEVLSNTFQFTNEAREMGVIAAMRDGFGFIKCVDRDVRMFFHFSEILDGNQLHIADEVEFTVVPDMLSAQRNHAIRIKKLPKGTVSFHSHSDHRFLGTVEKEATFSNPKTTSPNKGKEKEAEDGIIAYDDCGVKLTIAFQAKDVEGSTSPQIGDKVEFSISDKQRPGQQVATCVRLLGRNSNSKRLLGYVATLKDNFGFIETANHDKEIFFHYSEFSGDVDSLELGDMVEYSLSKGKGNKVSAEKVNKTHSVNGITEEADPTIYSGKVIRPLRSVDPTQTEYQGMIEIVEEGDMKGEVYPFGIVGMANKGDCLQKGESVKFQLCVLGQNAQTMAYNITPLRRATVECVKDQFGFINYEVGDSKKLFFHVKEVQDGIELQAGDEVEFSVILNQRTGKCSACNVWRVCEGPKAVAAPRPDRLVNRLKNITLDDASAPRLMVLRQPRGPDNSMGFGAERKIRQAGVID
UniProt O00571, 453-475: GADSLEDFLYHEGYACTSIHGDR
UniProt O60716: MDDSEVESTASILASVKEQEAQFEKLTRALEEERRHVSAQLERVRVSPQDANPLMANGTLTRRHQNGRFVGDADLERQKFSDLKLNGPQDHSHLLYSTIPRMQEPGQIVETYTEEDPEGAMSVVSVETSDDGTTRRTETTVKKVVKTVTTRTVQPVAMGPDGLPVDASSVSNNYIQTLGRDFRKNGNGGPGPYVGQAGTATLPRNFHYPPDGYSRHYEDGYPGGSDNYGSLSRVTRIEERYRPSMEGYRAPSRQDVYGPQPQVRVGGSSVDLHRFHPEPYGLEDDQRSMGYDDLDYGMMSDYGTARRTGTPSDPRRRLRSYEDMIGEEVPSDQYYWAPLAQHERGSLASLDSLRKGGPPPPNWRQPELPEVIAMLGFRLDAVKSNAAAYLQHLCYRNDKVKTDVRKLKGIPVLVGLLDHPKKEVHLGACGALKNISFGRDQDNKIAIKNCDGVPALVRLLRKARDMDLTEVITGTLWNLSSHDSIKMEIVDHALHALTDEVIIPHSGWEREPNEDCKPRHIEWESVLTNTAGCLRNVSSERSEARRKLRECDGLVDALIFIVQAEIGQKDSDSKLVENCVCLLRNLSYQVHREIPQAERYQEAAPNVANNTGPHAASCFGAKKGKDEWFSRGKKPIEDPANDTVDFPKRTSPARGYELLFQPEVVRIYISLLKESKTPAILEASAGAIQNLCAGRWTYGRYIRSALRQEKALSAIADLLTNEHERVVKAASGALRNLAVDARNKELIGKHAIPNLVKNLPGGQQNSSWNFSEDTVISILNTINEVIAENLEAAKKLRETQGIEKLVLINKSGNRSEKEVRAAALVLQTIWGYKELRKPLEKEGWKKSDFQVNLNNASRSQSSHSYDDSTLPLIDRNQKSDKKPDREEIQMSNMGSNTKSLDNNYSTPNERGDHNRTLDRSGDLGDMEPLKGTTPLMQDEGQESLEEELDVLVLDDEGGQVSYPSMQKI
UniProt Q5T1V6: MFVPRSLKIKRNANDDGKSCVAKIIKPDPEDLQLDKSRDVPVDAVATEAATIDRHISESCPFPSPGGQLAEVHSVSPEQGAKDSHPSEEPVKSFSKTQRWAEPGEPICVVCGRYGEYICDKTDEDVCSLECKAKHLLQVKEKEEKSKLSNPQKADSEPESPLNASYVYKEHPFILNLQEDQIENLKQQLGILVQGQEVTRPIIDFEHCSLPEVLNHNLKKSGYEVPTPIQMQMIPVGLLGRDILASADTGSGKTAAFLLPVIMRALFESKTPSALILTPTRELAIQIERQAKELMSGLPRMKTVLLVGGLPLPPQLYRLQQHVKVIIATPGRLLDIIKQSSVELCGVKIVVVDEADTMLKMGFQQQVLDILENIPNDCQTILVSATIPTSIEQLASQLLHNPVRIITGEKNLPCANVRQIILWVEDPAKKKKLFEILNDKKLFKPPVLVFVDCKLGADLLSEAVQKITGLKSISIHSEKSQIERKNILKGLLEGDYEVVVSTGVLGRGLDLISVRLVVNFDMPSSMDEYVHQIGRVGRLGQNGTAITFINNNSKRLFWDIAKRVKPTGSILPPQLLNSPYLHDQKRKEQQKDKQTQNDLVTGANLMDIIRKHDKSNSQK
UniProt Q9P0U4, whole entry, looked up: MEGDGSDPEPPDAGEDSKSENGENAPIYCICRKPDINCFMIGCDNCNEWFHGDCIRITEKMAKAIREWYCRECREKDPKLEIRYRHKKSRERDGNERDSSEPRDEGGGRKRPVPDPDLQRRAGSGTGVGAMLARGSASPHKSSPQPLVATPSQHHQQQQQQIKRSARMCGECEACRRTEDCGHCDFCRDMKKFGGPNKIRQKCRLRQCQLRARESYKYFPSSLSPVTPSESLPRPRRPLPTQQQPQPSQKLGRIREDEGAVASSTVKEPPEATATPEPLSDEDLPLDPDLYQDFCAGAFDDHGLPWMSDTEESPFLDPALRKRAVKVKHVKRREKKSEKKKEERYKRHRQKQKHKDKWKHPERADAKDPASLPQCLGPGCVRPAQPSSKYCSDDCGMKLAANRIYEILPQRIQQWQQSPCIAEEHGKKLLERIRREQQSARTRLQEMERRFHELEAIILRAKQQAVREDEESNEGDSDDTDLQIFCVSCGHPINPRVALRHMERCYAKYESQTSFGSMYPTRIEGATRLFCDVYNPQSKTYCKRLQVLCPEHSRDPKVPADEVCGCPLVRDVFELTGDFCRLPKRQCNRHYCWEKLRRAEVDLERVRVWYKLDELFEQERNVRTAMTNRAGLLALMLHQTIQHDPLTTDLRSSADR
UniProt Q7Z4W1: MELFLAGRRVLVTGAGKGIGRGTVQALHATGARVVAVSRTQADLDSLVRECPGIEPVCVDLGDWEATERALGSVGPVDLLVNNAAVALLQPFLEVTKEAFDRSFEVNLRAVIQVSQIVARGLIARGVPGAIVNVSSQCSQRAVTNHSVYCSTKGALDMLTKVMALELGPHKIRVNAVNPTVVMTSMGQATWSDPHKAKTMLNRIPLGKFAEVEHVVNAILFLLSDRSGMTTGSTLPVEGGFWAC
UniProt Q8TB03: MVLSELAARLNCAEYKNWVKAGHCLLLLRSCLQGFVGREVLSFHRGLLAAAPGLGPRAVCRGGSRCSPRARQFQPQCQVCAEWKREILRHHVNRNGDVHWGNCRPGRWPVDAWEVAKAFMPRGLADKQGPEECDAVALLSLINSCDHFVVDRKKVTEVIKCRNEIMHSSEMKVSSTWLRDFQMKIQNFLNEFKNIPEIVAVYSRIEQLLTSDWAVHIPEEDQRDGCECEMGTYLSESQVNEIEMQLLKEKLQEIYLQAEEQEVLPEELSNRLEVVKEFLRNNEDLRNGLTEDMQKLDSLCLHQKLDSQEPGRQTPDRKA
UniProt Q9UHI6: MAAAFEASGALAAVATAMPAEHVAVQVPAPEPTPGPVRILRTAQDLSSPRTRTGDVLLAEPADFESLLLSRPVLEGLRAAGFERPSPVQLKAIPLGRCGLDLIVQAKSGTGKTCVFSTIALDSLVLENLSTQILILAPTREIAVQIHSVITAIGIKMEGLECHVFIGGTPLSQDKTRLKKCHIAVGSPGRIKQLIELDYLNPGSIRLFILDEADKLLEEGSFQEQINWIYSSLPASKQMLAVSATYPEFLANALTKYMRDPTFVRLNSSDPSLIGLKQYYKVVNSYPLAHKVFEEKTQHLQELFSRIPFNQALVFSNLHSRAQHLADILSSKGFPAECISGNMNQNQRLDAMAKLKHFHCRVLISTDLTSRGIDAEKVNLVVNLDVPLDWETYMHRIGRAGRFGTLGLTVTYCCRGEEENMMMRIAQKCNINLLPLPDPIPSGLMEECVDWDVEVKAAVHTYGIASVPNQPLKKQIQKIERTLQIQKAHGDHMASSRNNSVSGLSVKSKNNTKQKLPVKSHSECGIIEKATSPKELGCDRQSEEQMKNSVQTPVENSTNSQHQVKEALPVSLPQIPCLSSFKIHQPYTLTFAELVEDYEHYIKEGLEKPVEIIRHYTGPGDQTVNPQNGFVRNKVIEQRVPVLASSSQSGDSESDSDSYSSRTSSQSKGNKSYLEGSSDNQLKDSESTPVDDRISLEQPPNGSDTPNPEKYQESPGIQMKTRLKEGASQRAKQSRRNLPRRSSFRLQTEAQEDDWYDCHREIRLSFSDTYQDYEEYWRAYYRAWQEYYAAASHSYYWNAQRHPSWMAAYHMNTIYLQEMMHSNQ
UniProt Q96JK2, whole entry, looked up: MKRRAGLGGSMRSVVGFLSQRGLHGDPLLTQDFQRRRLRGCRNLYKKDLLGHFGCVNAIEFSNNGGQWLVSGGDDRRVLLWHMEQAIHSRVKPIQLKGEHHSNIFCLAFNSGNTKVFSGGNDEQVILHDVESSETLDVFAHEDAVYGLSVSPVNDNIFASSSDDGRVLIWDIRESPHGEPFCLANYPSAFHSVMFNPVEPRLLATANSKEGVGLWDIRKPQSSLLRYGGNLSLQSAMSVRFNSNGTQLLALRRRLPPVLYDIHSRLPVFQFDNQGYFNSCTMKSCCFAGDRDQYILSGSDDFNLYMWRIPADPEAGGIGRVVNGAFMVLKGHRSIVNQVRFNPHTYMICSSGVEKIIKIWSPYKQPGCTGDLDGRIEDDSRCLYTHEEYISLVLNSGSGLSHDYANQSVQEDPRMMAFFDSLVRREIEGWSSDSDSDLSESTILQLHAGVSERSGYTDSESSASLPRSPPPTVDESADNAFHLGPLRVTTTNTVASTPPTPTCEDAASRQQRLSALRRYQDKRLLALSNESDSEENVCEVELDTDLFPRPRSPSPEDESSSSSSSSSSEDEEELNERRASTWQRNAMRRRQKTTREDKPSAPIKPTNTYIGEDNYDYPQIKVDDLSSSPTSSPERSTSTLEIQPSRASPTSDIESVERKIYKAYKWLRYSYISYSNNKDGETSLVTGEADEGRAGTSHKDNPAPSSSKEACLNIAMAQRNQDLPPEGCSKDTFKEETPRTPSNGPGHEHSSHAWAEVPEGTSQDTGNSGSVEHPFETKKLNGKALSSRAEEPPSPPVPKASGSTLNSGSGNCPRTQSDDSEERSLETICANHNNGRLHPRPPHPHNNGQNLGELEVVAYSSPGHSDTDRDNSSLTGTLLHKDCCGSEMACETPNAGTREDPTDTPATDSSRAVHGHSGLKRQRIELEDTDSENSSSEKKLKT

Compound: ClCC(=O)N[C@H]1CCCc2ccccc12
Assay: log2 mean competition ratio of IA-DTB cysteine labelling (DMSO/compound) (log2 ratio); higher = stronger cysteine engagement by compound
Settings: 50 µM; treatment time: 4 h; cell line lysate: HEK293T
Experimental: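 IA-DTB competitive cysteine chemoproteomics in HEK293T RIPA lysate. Lysates were treated with compound 29 or 30 at 50 or 200 µM for 4 h, then IA-DTB (500 µM, 1 h), trypsin-digested, NeutrAvidin-enriched and analysed by diaPASEF. Competition ratio = intensity DMSO / intensity compound (n=4 treated, n=64 DMSO); binding: mean log2 CR ≥ 1 and p ≤ 0.05 plus QC filters. Target is the cysteine site.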

Row | Target | log2 mean competition ratio
1 | CSTF3 C646 (UniProt Q12996) | 0.108
2 | CSDE1 C506 (UniProt O75534) | 0.156
3 | DAB2IP C1065 (UniProt Q5VWQ8) | -0.115
4 | CREB5 C441 | 0.093
5 | DDX3X C468 (UniProt O00571) | 0.134
6 | CSTF3 C536 (UniProt Q12996) | 0.0898
7 | CTC1 C535 (UniProt Q2NKJ3) | 0.258
8 | CTNND1 C516 (UniProt O60716) | -0.144
9 | DDX59 C345 (UniProt Q5T1V6) | 0.399
10 | CXXC1 C580 (UniProt Q9P0U4) | 0.0522
11 | CYRIB C253 | -0.229
12 | DCXR C150 (UniProt Q7Z4W1) | 0.262
13 | CRYBG3 C898 (UniProt Q68DQ2) | -0.0363
14 | DDX28 C170 (UniProt Q9NUL7) | -0.218
15 | CXXC1 C531 (UniProt Q9P0U4) | -0.213
16 | CXorf38 C12 (UniProt Q8TB03) | 0.178
17 | CUL2 C103 (UniProt Q13617) | 0.0717
18 | DDX20 C162 (UniProt Q9UHI6) | -0.581
19 | DDX20 C524 (UniProt Q9UHI6) | -0.251
20 | DCAF5 C728 (UniProt Q96JK2) | -0.231

Same assay, conditions: 200 µM; treatment time: 4 h; cell line lysate: HEK293T

Row | Target | log2 mean competition ratio
21 | CSTF3 C646 (UniProt Q12996) | 0.0496
22 | CSDE1 C506 (UniProt O75534) | -0.138
23 | DAB2IP C1065 (UniProt Q5VWQ8) | 0.0297
24 | CREB5 C441 | 0.00926
25 | DDX3X C468 (UniProt O00571) | 0.0582
26 | CSTF3 C536 (UniProt Q12996) | -0.0933
27 | CTC1 C535 (UniProt Q2NKJ3) | 0.00716
28 | CTNND1 C516 (UniProt O60716) | 0.0313
29 | DDX59 C345 (UniProt Q5T1V6) | -0.117
30 | CXXC1 C580 (UniProt Q9P0U4) | 0.302
31 | CYRIB C253 | -0.00854
32 | DCXR C150 (UniProt Q7Z4W1) | -0.195
33 | CRYBG3 C898 (UniProt Q68DQ2) | 0.29
34 | DDX28 C170 (UniProt Q9NUL7) | 0.105
35 | CXXC1 C531 (UniProt Q9P0U4) | -0.058
36 | CXorf38 C12 (UniProt Q8TB03) | 0.237
37 | CUL2 C103 (UniProt Q13617) | -0.0144
38 | DDX20 C162 (UniProt Q9UHI6) | -0.357
39 | DDX20 C524 (UniProt Q9UHI6) | 0.188
40 | DCAF5 C728 (UniProt Q96JK2) | 0.243
